Results reported in US20180243421A1, “IMMUNOSTIMULATING AGENT” (AJINOMOTO CO., INC., priority 2015, published 2018).
For at least one compound, name, drawing or mass did not settle the structure.

What was measured:
[1] = tested on: anti-OVA-specific IgG1 subclass antibody; test: Adjuvant activity: anti-OVA-specific IgG1 subclass antibody in serum after secondary immunization (Examples 1, 5, 7, 8; ELISA absorbance); type: in vivo, BALB/c mice; details: Example 5
Description: Two weeks from the secondary immunization, the whole blood was extracted under anesthesia, and the obtained serum sample was measured for anti-OVA-specific IgG1 subclass antibody.
A method for measurement of the anti-OVA-specific IgG1 subclass antibody in Example 1, and the following Examples 5, 7 and 8 is as follows.
Measurement Method of anti-OVA-specific IgG1 Subclass Antibody
To a 96 well plate was added 5 μg/ml OVA at 100 μl/well, and the mixture was incubated at 4° C. overnight. After incubation, the mixture was washed three times with 200 μl of PBS-T (PBS+0.05%(v/v) Tween 20) per well, and blocked with 100 μl of 5% FCS/PBS solution per well at room temperature for 1 to 2 hr. Thereafter, the mixture was washed three times with PBS-T (200 μl/well), a diluted serum sample (100 μl/well) or the same amount of 5% FCS/PBS solution as a control was added, and the mixture was incubated at 37° C. for 1 hr. Thereafter, the mixture was washed five times with PBS-T (200 μl/well), a diluted biotinylated anti-mouse IgG1 antibody (100 μl/well) was added, and the mixture was incubated at 37° C. for 45 min. […] Thereafter, a reaction quenching liquid (2N sulfuric acid solution) was added (50 μl/well) to discontinue a color developing reaction, and the absorbance (OD Value=450 nm) was measured by a microplate reader.

[2] = tested on: anti-OVA-specific IgG1 subclass antibody; test: Adjuvant activity after primary immunization: anti-OVA-specific IgG1 subclass antibody in serum (Examples 13-18); type: in vivo, BALB/c mice; details: Example 18; OVA 5 μg + 0.256 μmol in 5% αCD saline s.c.; serum after 12 days
Description: 8-Week-old female BALB/c mice were divided into groups (N=6), and each group was primarily immunized by dorsal-subcutaneous administration of (1) ovalbumin (OVA) (5 μg) dissolved in saline as an antigen (OVA single administration group), (2) OVA (5 μg) and SZ83 (0.256 μmol) dissolved or dispersed in 5% αCD-added saline (SZ83 administration group), (3) OVA (5 μg) and SZ84 (0.256 μmol) dissolved or dispersed in 5% αCD-added saline (SZ84 administration group), (4) OVA (5 μg) and SZ86 (0.256 μmol) dissolved or dispersed in 5% αCD-added saline (SZ86 administration group), (5) OVA (5 μg) and SZ89 (0.256 μmol) dissolved or dispersed in 5% αCD-added saline (SZ89 administration group), (6) OVA (5 μg) and SZ90 (0.256 μmol) dissolved or dispersed in 5% αCD-added saline (SZ90 administration group), each per mouse. […]
To a 96 well plate was added 5 μg/ml OVA at 100 μl/well, and the mixture was incubated at 4° C. overnight. […] When an anti-OVA-specific IgG2a subclass antibody was measured, the standard of an anti-OVA-specific IgG2a subclass antibody was added at 50 ng/ml, 25 ng/ml, 12,5 ng/ml, 6.25 ng/ml, 3.125 ng/ml, 1.56 ng/ml, 0.781 ng/ml, 0.391 ng/ml, 0.195 ng/ml, 0.098 ng/ml, 0.049 ng/ml, 0 ng/ml, per 1 well. […] A standard curve was drawn from the measured OD values, and the concentration was calculated. […]

Row | Compound | adjuvant activity (IgG1) compared with Alum [1] | anti-OVA-specific IgG1 subclass antibody production as compared to the OVA single administration group ([1]; same manner as Example 1) | anti-OVA-specific IgG1 subclass antibody production after primary immunization as compared to the OVA single administration group [2]
1 | CCCCCCCCCCCCCCCC(=O)N[C@@H](CCCNC(=N)N)C(=O)O [SZ61, N^2-hexadecanoyl-L-arginine] | equivalent to or not less than that of Alum | significantly increased | –
2 | CCCCCCCCCCCCCCCC(=O)N[C@@H](CCC(N)=O)C(=O)OC [SZ136, N^2-hexadecanoyl-L-glutamine methyl ester] | – | – | tended to increase
